Laboratory results from article PMC11077971 (mBio, 2024).
These are yes or no findings as the source states them, for the method shown. Some results given as binding are weak or reduced against the parent protein; the word gives no strength.

Experiments:
[1] = molecular target: BC1E408AΔBCCP^β-hairpin (Chloroflexus aurantiacus J-10-fl) (UniProt A9W9X0); assay: AUC + SEC; sedimentation velocity, 42,000 rpm, 20°C, initial A280 ~0.7, Sedfit; gel filtration on a Superdex 200 column; both purified
[2] = molecular target: BC1 with the E408A mutation (Chloroflexus aurantiacus J-10-fl) (UniProt A9W9X0); assay: SEC; gel filtration of BC1 dimer interface mutants (Fig. S6D); both purified

| binding [1] | binding [2] | Binder |
| --- | --- | --- |
| no binding | – | BC1E408AΔBCCP^β-hairpin (enzyme, UniProt A9W9X0) MFRTILVANRGEIALRVMRACRELGLRCVAVYSEADRDAPHVAYADDAFLIGPPSPAESYLNIDAIIRAAKATGAEAIHPGYGFLAENASFVRAVTAAGLIFIGPPAEAMERMGGKTAARREATAAGVPVVPGVLEPVTDAAEVRRLGKEFGYPIAIKAVGGGGGRGLRVVRSPEEVDEAFAAARREAEVAFKNGELYVEKYLDDPRHIEIQVLADRYGNAVALGERDCSVQRRHQKLIEECPSPALTPELRAEMGAAAVRLAKAVGYVSAGTLEFLFQDGRYYFLEMNTRIQVEHTVTEMVYGIDLVAAQIRIAQGEKLWFKQEDVVPRGHAIECRINAEDPLHNFRPALGTIGEYHEPVGFGVRVDSGVRAYYTVPSHYDSLLAKLITWGSDRQEAIARMRRALAAYRIEGVTTIIPFHQAALEHPVFTAGAATVNFIPRHPELFSRAAELTPPTAASAGAEPAPEPRRFGDGMNATPVASPSRSAPARRAAPKKTTLAAPVDAVISPIQGRVVAVRVAHGQQVEAGQVLFIVEAMKMENEITAPHSGTIAEVRVEVGTTVEAGAMLATYQNTANNTNGK |
| – | binds | BC1 with the E408A mutation (enzyme, UniProt A9W9X0 1-596) MFRTILVANRGEIALRVMRACRELGLRCVAVYSEADRDAPHVAYADDAFLIGPPSPAESYLNIDAIIRAAKATGAEAIHPGYGFLAENASFVRAVTAAGLIFIGPPAEAMERMGGKTAARREATAAGVPVVPGVLEPVTDAAEVRRLGKEFGYPIAIKAVGGGGGRGLRVVRSPEEVDEAFAAARREAEVAFKNGELYVEKYLDDPRHIEIQVLADRYGNAVALGERDCSVQRRHQKLIEECPSPALTPELRAEMGAAAVRLAKAVGYVSAGTLEFLFQDGRYYFLEMNTRIQVEHTVTEMVYGIDLVAAQIRIAQGEKLWFKQEDVVPRGHAIECRINAEDPLHNFRPALGTIGEYHEPVGFGVRVDSGVRAYYTVPSHYDSLLAKLITWGSDRQEAIARMRRALAAYRIEGVTTIIPFHQAALEHPVFTAGAATVNFIPRHPELFSRAAELTPPTAASAGAEPAPEPRRFTIEVNGRRFGVAVFGDGMNATPVASPSRSAPARRAAPKKTTLAAPVDAVISPIQGRVVAVRVAHGQQVEAGQVLFIVEAMKMENEITAPHSGTIAEVRVEVGTTVEAGAMLATYQNTANNTNGK |
